Reference: patent US7682630B2, “Antitumor agent and process for producing the same” (priority 2003, dated 2010)
Some of these results come from one statement about several compounds together.

Tested on: Sarcoma S180 cells
Test: In vivo antitumor activity, S180 sarcoma in ddY mice
Conditions: 20 mg/kg body weight free drug

Compound | time until all animals died due to toxicity [week]
COc1cccc2c1C(=O)c1c(O)c3c(c(O)c1C2=O)CC(O)(C(=O)CO)CC3OC1CC(N)C(OC2CCCCO2)C(C)O1 (centres unmarked) [Free pirarubicin, pirarubicin] | ≤ 1
COc1cccc2c1C(=O)c1c(O)c3c(c(O)c1C2=O)C[C@@](O)(C(=O)CO)C[C@@H]3O[C@H]1C[C@H](N)[C@H](O)[C@H](C)O1 [doxorubicin] | ≤ 1
